Experimental data published in PubChem BioAssay AID2551 (National Center for Advancing Translational Sciences (NCATS), 2010).
Out of some 310,000 compounds screened, about 17,000 (5.5%) were called active. Inconclusive results, whose numbers are uncertain, are shown with a selection of clear calls. Calls come from the whole dose curve; as a rule, active = well fitted inhibition curve with a large enough effect; inconclusive = small, poorly fitted or top-dose-only effect, or effect the other way; inactive = no such curve, though single readings can be large or run the other way. Potencies of inconclusive entries are doubtful fits and often do not repeat.

Protein sequences, listed by entry. Tags and fused reporters are not part of them. Lines headed by an entry give the natural chain unless they say otherwise; changes in a name come on top.
UniProt P51450: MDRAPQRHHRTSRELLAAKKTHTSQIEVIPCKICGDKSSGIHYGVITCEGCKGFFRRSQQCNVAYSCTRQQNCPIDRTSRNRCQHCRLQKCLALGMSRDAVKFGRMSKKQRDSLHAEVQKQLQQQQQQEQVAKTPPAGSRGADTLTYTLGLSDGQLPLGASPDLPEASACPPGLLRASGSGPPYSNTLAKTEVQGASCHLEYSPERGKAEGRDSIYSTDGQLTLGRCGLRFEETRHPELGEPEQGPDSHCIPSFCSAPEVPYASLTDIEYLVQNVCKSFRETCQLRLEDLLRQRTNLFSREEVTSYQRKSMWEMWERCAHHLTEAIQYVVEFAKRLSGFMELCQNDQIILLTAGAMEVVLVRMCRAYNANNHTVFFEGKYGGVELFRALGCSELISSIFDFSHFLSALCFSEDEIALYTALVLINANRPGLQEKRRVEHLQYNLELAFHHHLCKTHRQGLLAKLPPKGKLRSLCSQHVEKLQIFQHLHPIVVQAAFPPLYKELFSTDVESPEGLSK

target: Nuclear receptor ROR-gamma (Mus musculus) (UniProt P51450); test: qHTS for inhibitors of ROR gamma transcriptional activity; settings: Drosophila S2 Gal4-RORgamma UAS-luciferase reporter, 20 h; activity change, negative = inhibition: at 53.6 µM (top of the series); note: nearly all actives have a fitted effect of over 60% in size
Summary of the method: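 Stably transfected Drosophila Schneider cells are the test system, with ROR gamma fused to Gal4 and luciferase under UAS control; luminescence is read after 20 hr of 700 uM copper sulfate induction at ambient temperature.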
% is set by controls: 0 for no effect and ±100 for the full control effect; potency is the fitted concentration of half-maximal effect.

| Compound | activity change, negative = inhibition | Potency |
| --- | --- | --- |
| O=C1NN=C(c2ccc(Cl)cc2)CC1c1cccc(Br)c1 (centres undefined) | inactive: 41.3% |  |
| O=C(Oc1ccccc1)N1CCC[C@@]2(CCN(c3ccncc3)C2)C1 | inactive: -27.5% |  |
| COCCNC(=O)/C(C#N)=C/c1ccc(O)c([N+](=O)[O-])c1 | inactive: 2.03% |  |
| O=C(CCCN1C(=O)/C(=C/c2cccs2)SC1=S)NNC(=O)c1ccc(F)cc1 |  | inconclusive: 5.01 µM [inhibitor, single point] |
| COc1ccc2nc(SCC(=O)/C(C#N)=C(\C)N)[nH]c2c1 |  | inconclusive: 14.1 µM [inhibitor, single point] |
| COc1ccc(CN2CCNC(=O)C2CC(=O)NCc2cn[nH]c2-c2ccccc2)c(F)c1 (centres undefined) | inactive: 14.9% |  |
| S=C1N[C@H]2CCCC[C@@H]2N1 | inactive: -22.2% |  |
| Cc1ccsc1C(=O)OCC(=O)N1CCc2ccccc2C1 |  | inconclusive: 35.5 µM [inhibitor, single point] |
| COc1ccc(C(=O)C(CN2CCOCC2)c2ccccc2)cc1 (centres undefined) |  | active: 12.6 µM |
| O=C(/C(=N/N=C/c1ccc(O)c(O)c1O)c1ccccc1)c1ccccc1 |  | inconclusive: 17.8 µM [inhibitor, single point] |
| Cc1ccc(/C=C/c2nnc(-c3cccc(C)c3)o2)cc1 | inactive: 8.56% |  |
| COc1ccc(OC)c(NC(=O)Cc2cccs2)c1 |  | inconclusive: 15.8 µM [activator, partial curve] |
| N#Cc1c(SCC(=O)Nc2ccccc2)nsc1SCC(=O)Nc1ccccc1 |  | inconclusive: 35.5 µM [inhibitor, single point] |
| CCN1CCN(c2nc(-c3ccccc3)nc3ccccc23)CC1 |  | inconclusive: 35.5 µM [inhibitor, single point] |
| O=C(COc1ccccc1)N1CCN(S(=O)(=O)c2ccc(Br)cc2)CC1 | inactive: 19.4% |  |
| COC(=O)N1CC=CC1(C)C(=O)O (centres undefined) | inactive: -5.27% |  |
| CC(=O)Nc1ccc(S(=O)(=O)N2CCN(CC(=O)NC3CCCC3)CC2)cc1 |  | inconclusive: 5.62 µM [inhibitor, single point] |
| COc1ccc(CC(=O)NNC(=O)c2cnccn2)cc1 | inactive: -12.4% |  |
| COc1ccc(C(=O)N(C)CC2CCN(CCc3cccc(C(F)(F)F)c3)CC2)cc1C |  | inconclusive: 15.8 µM [inhibitor, partial curve] |
| O=Cc1c(Nc2ccccc2Cl)nc2ccccn2c1=O |  | inconclusive: 35.5 µM [inhibitor, single point] |
| O=[N+]([O-])c1cccc(-c2nc3ccc([N+](=O)[O-])cc3[nH]2)c1 |  | inconclusive: 35.5 µM [activator, partial curve] |
| CCCCCCCCn1c(=O)c(C(=O)OC)c(N)c2ccccc21 |  | active: 3.16 µM |
| O=C(CN(Cc1ccco1)C(=O)CNS(=O)(=O)c1ccc(F)cc1)NCc1ccc(F)cc1 | inactive: 4.01% |  |
| COc1ccc(-n2c(=O)c3c4c(sc3n3c(=S)[nH]nc23)COC(C(C)C)C4)cc1 (centres undefined) |  | inconclusive: 3.55 µM [inhibitor, full curve] |
| COc1ccc(NC(=O)C2CCN(S(=O)(=O)c3ccc(Br)s3)CC2)cc1OC |  | inconclusive: 10 µM [activator, partial curve] |

| Compound | activity change, negative = inhibition | Potency |
| --- | --- | --- |
| Cc1cc(C)nc(N/N=C/c2c[nH]c3ccccc23)n1 |  | inconclusive: 17.8 µM [inhibitor, single point] |
| COc1ccc(N(CC(=O)NC2CCCC2)C(=O)c2ccc(C)s2)c(OC)c1 | inactive: -28.6% |  |
| O=C(/C=C/c1c(F)cccc1Cl)c1ccc(O)cc1 |  | inconclusive: 35.5 µM [inhibitor, single point] |
| N=C(N)SCc1nc2ccccn2c1Br | inactive: -4.92% |  |
| NS(=O)(=O)c1ccc(NC(=O)CSc2nc3ccccc3[nH]2)cc1 |  | inconclusive: 11.2 µM [activator, partial curve, poor fit] |
| COc1ccc(/C=N/c2oc(-c3ccccc3)cc2C#N)cc1OC | inactive: -20.5% |  |
| CCCN(CCC)C1CC(=O)N(Cc2ccccc2)C1=O (centres undefined) |  | inconclusive: 28.2 µM [inhibitor, single point] |
| O=C1c2ccccc2-c2onc3c(N4CCN(CCO)CC4)cc(N4CCN(C(=O)c5ccco5)CC4)c1c23 |  | inconclusive: 11.2 µM [inhibitor, partial curve] |
| COc1cccc(OC)c1-c1nn2c(-c3ccccc3Cl)nnc2s1 | inactive: 1.41% |  |
| CCOC(=O)N1CCN(C(=O)c2ccc3c(=O)n(Cc4ccc(OC)cc4)c(=S)[nH]c3c2)CC1 | inactive: 26.1% |  |
| CCOC(=O)c1cnc(Nc2nc3ccccc3o2)nc1C |  | inconclusive: 5.01 µM [inhibitor, partial curve, poor fit] |
| CCCNC(=S)N1CCC(C(=O)c2ccc(OC)cc2)CC1 | inactive: -0.358% |  |
| CC(=O)CC(C)(C)Nc1nc2ccc([N+](=O)[O-])cc2o1 |  | inconclusive: 2 µM [activator, partial curve] |
| COCCNC(=S)NNc1ccccc1[N+](=O)[O-] |  | inconclusive: 25.1 µM [inhibitor, single point] |
| Fc1cccc(Cl)c1Cn1nnc(-c2ccc3c(c2)OCO3)n1 |  | inconclusive: 0.501 µM [activator, full curve] |
| C/C(=N\NC(=O)CCc1ccc(S(=O)(=O)N2CCOCC2)cc1)c1ccc(Br)cc1 | inactive: -11.5% |  |
| CN1CCN(C(=O)c2cccc(COc3cc(Cl)ccc3Cl)c2)CC1 | inactive: -30.1% |  |
| CCOC(=O)c1sc2ncnc(NCc3ccco3)c2c1C |  | active: 7.94 µM |
| O=C(/C=C/c1ccccc1)c1ccc(O)cc1 |  | active: 11.2 µM |
| COC(=O)c1ccc(C2C(C#N)=C(N)Oc3cc(O)ccc32)cc1 (centres undefined) | inactive: 34.5% |  |
| Cc1ccc(S(=O)(=O)Cn2nnnc2C(c2ccc(F)cc2)N2CCCCC2)cc1 (centres undefined) |  | inconclusive: 12.6 µM [activator, single point] |
| Oc1ccc(-c2nc3ccccc3s2)cc1 |  | inconclusive: 11.2 µM [inhibitor, partial curve, poor fit] |
| CC(=O)c1nnn(-c2nc(N)nc(N(c3ccccc3)c3ccccc3)n2)c1C |  | inconclusive: 17.8 µM [activator, partial curve] |
| O=C(CN1CCCc2ccccc21)Nc1ccc(F)cc1[N+](=O)[O-] |  | inconclusive: 17.8 µM [inhibitor, partial curve, poor fit] |

In the list so far, these have an aryl thioether with sulfur outside any ring:

| Compound | activity change, negative = inhibition | Potency |
| --- | --- | --- |
| COc1ccc2nc(SCC(=O)/C(C#N)=C(\C)N)[nH]c2c1 |  | inconclusive: 14.1 µM [inhibitor, single point] |
| N#Cc1c(SCC(=O)Nc2ccccc2)nsc1SCC(=O)Nc1ccccc1 |  | inconclusive: 35.5 µM [inhibitor, single point] |
| NS(=O)(=O)c1ccc(NC(=O)CSc2nc3ccccc3[nH]2)cc1 |  | inconclusive: 11.2 µM [activator, partial curve, poor fit] |
